For 42 sequences, binding signal results are on record in article PMC7819943, “Rice protein-binding microarrays: a tool to detect cis-acting elements near promoter regions in rice”.

The other results are listed elsewhere or left out.

The target of this experiment is T1, OsSMF1 (Oryza sativa, UniProt Q6ZLB0 1-436).
T1 sequence: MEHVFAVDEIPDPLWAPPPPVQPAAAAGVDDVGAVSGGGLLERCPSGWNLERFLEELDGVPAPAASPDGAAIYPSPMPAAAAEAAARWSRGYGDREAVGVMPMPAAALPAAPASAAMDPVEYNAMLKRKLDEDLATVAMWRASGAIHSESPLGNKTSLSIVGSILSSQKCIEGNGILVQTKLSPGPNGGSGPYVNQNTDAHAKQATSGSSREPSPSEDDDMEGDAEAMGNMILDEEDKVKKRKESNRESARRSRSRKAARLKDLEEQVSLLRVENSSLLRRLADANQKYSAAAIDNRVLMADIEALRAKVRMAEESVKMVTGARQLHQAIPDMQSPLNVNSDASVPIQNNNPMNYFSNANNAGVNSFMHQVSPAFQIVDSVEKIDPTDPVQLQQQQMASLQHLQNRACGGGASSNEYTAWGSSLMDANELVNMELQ
Kind of experiment: protein-binding microarray (RPBM); PBS, 2% BSA, 51.3 ng/ul salmon testes DNA, 50 uM zinc acetate, 200 nM TF, 25 C, 1 h; high values mean tight binding. As to conditions: protein: recombinant; tags: N-terminal polyhistidine and DsRed monomer fusion (pET32a); chain copies: 2; label: CyDye5-dUTP incorporated in the synthesized complementary strand; 3' TTTTT single-stranded linker to array surface; dsDNA, one strand shown. In short, it runs like this: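 Per-feature fluorescence intensity (arbitrary units), read on an Axon 4000B scanner, is the binding signal. Transcription factors carrying an N-terminal polyhistidine tag and DsRed fusion were expressed in E. coli BL21-CodonPlus and purified on Ni–NTA. A custom Agilent array, made double-stranded by primer extension with Cy5-dUTP and blocked with 2% BSA, was incubated with 200 nM protein in PBS, 2% BSA, salmon testes DNA and 50 µM zinc acetate at 25 °C for 1 h and then washed.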
On to “TTTAGTAATTGGTAGAGCTCAAATTTCTAAATTTAACTTCCGGAGTCACCTAGTGCAG”, for which the binding signal is 3160 fluorescence intensity (a.u.).

Turning to “GAAGAGCTCGAGTCCCAGGTTGACGCACGACTCCGCCGTCCGGAGTCACCTAGTGCAG”, the binding signal is 4460 fluorescence intensity (a.u.). Take “GATCATGAGCTCCACGGCGGCCAACGTGGCGGCGCCGACGCGGAGTCACCTAGTGCAG”: the binding signal was 8640 fluorescence intensity (a.u.). For “TCGGAAGCCAAGCCCCAGGAAAGAGGAACGCACGAGCAGCCGGAGTCACCTAGTGCAG”, the binding signal is 13100 fluorescence intensity (a.u.). Take “CTTCACACGCACGTGCCACATCAACTAAGCTAGTACCTACCGGAGTCACCTAGTGCAG”: the binding signal was 5360 fluorescence intensity (a.u.). Turning to “ATTAATATCGTTATGATTTGATACGATTTGGTCTTCCCTTCGGAGTCACCTAGTGCAG”, the binding signal was 35800 fluorescence intensity (a.u.). The result for “GACAAACCATCCCAATTCCAATCAATCATGGGCAAATCATCGGAGTCACCTAGTGCAG” reads 3400 fluorescence intensity (a.u.).

Take “CTTAACTTTGGGACCCACATGTCATGCTCTCAAATTTAGACGGAGTCACCTAGTGCAG”: the binding signal is 3460 fluorescence intensity (a.u.).

On to “TACGTTAAAATTCGTGTGGAGACGTGTCACTCAAGATGACCGGAGTCACCTAGTGCAG”, for which the binding signal is 8520 fluorescence intensity (a.u.). In the case of “CCGTCCGGTGACTGACGTACGTGGATATGTTTTCATTTGACGGAGTCACCTAGTGCAG” it was 4020 fluorescence intensity (a.u.); in that of “GTACTCAGCATACTGGACGGCAGAAACAGCCGTGGCACTGCGGAGTCACCTAGTGCAG”, 3680 fluorescence intensity (a.u.). As to “GTCGGCTGAGGTGTGAGTTATCGTCTGTGCCGCGGGTCCACGGAGTCACCTAGTGCAG”, the binding signal is 3450 fluorescence intensity (a.u.). Regarding “AGATATTGTTTTGCCATTTTCTCTGCTGACGATGACGATGCGGAGTCACCTAGTGCAG”, the binding signal was 5400 fluorescence intensity (a.u.). For “ATATTCAGCAACGCCTGCTCACACAGTGACACAGATGATCCGGAGTCACCTAGTGCAG”, the binding signal was 4290 fluorescence intensity (a.u.). For the sequence “ATGCCCATGCAAGGAAAACGCCCATCCAACCACGGTGCACCGGAGTCACCTAGTGCAG”, the binding signal was 3570 fluorescence intensity (a.u.).

“CCGGCCAGTGAAGGGGATGGTGACTGGTGTCTGGTGAGTGCGGAGTCACCTAGTGCAG”: the binding signal is 3570 fluorescence intensity (a.u.). For the sequence “TGTGCTAAGAAAATAGATTATATCATTGTCATCCAAATTTCGGAGTCACCTAGTGCAG”, the binding signal was 3170 fluorescence intensity (a.u.).

As to “GCTCGACTCGCTGTTGTTGACGGTGAGGAGGGCGCTTGCCCGGAGTCACCTAGTGCAG”, the binding signal was 3470 fluorescence intensity (a.u.).

Consider “CTCTTTATTCGGGTACCACTCTCGATGCTGCACCGTGACGCGGAGTCACCTAGTGCAG”, for which the binding signal is 3270 fluorescence intensity (a.u.). For the sequence “TATATATATATATGACGTATGTATTTCATGGTGTAATAGCCGGAGTCACCTAGTGCAG”, the binding signal is 4860 fluorescence intensity (a.u.). For “ATGAAGCGCCGCGTTGCAGGCTGCAGGAGACGTCAGCAGTCGGAGTCACCTAGTGCAG”, the binding signal was 6660 fluorescence intensity (a.u.). The result for “TGATCAAAACAGGATAGCTGCATCACCACGTCAACAACCACGGAGTCACCTAGTGCAG” reads 7220 fluorescence intensity (a.u.); that for “ATGTGGGGAAGCCCTGGAACTGCTGTACCAGGTACGCAATCGGAGTCACCTAGTGCAG”, 4740 fluorescence intensity (a.u.); that for “CTTGCATTCCTTTTCTTCTCCTGAACTATATAAACACACTCGGAGTCACCTAGTGCAG”, 3290 fluorescence intensity (a.u.). Take “CTGCTCGATCAAAATCCTCCAACAACTCGATCCATTCGCACGGAGTCACCTAGTGCAG”: the binding signal is 3250 fluorescence intensity (a.u.).

Turning to “TCCCGGGCAACTTTAAGTTATTGGGCCTCGGCCAACGTGTCGGAGTCACCTAGTGCAG”, the binding signal was 3620 fluorescence intensity (a.u.). On to “ATGCCATATATTGTACCTCTCTGCCGTATTACATTTACATCGGAGTCACCTAGTGCAG”, for which the binding signal was 4160 fluorescence intensity (a.u.).

Regarding “AAGATCGTCGTCACTCGCGGCGCCACACAAGAAGTTCGTCCGGAGTCACCTAGTGCAG”, the binding signal is 3470 fluorescence intensity (a.u.). On to “GCGTGGTGGGACCCGGGTTCCCACGGCGTGGCACGTTGGGCGGAGTCACCTAGTGCAG”, for which the binding signal was 3280 fluorescence intensity (a.u.). Consider “TGTGATGCCCTCGCGTGACACGCACGAGCTGCCGCCTTTGCGGAGTCACCTAGTGCAG”, for which the binding signal is 4690 fluorescence intensity (a.u.). As to “GCCATTGATTGCCCATGCACTGACACGACCACAGATGCCTCGGAGTCACCTAGTGCAG”, the binding signal was 3270 fluorescence intensity (a.u.).

Consider “TCACTCATTCACTCTCCACGCTTTCACTTCACTCGCCCACCGGAGTCACCTAGTGCAG”, for which the binding signal was 3260 fluorescence intensity (a.u.). Regarding “CACAGCCCACAGGCCGCTCCTCGCGGTGTCCACGTGGGATCGGAGTCACCTAGTGCAG”, the binding signal is 14400 fluorescence intensity (a.u.).

For the sequence “CACGAGTGTTCACGTCGACCATAATGGCACCACCACCCCGCGGAGTCACCTAGTGCAG”, the binding signal was 3520 fluorescence intensity (a.u.). On to “CTATTTGGCGCTGAGGTGTCTAAGTTCAGCGCCACACGATCGGAGTCACCTAGTGCAG”, for which the binding signal was 3860 fluorescence intensity (a.u.). As for “GAGAGGGGAAGGGCGCTAGTAAGAAGCGCTAAGGGATGAGCGGAGTCACCTAGTGCAG”, the binding signal was 3180 fluorescence intensity (a.u.). For “CGCTTGGGACCACGCCGTCATCTCCGACGAAATCTACGCCCGGAGTCACCTAGTGCAG”, the binding signal is 3960 fluorescence intensity (a.u.).

For “CAGGGTCCAGTTGACAGTGTTACGTGACGTACGCAAACCTCGGAGTCACCTAGTGCAG”, the binding signal was 8350 fluorescence intensity (a.u.). The result for “TTTTGGCTGCGGAATCCACCCGTGAAACCGAGGGCCGCGTCGGAGTCACCTAGTGCAG” reads 5010 fluorescence intensity (a.u.). Regarding “CCGCCGGTAAAACCGCGCGCTCCATGCCCACGAAGCAACCCGGAGTCACCTAGTGCAG”, the binding signal was 36000 fluorescence intensity (a.u.). On to “AGTGATCATACAGCCTTCCTGCTCTCTCTATTCTGTTTGCCGGAGTCACCTAGTGCAG”, for which the binding signal is 28200 fluorescence intensity (a.u.). Take “GATTGTTGGTAGCTAGGTAGCTGTGGCCAAGAAAGTGAGACGGAGTCACCTAGTGCAG”: the binding signal was 3810 fluorescence intensity (a.u.).
